Some of the results follow.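 The calls were made as follows: active = dose-dependent thermal stabilisation significant by F-test of dose-response against flat model at 10% FDR; inactive = not significant.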

By UniProt entry, the sequences of proteins in these tests, tags left out. Where a name states a change or a piece, a line headed by the entry shows the natural chain unless it says otherwise.
UniProt Q9NVG8: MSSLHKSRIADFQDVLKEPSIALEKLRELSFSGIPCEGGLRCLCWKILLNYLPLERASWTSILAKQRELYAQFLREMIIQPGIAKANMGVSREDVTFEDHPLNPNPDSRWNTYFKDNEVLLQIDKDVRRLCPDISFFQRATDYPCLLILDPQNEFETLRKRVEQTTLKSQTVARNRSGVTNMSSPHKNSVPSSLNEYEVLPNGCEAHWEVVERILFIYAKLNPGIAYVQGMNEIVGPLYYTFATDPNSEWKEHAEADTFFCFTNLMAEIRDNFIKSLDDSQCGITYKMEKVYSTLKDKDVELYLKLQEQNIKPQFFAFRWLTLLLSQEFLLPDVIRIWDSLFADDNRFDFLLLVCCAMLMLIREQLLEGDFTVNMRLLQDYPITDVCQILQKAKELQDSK
UniProt Q9UPQ9, whole entry: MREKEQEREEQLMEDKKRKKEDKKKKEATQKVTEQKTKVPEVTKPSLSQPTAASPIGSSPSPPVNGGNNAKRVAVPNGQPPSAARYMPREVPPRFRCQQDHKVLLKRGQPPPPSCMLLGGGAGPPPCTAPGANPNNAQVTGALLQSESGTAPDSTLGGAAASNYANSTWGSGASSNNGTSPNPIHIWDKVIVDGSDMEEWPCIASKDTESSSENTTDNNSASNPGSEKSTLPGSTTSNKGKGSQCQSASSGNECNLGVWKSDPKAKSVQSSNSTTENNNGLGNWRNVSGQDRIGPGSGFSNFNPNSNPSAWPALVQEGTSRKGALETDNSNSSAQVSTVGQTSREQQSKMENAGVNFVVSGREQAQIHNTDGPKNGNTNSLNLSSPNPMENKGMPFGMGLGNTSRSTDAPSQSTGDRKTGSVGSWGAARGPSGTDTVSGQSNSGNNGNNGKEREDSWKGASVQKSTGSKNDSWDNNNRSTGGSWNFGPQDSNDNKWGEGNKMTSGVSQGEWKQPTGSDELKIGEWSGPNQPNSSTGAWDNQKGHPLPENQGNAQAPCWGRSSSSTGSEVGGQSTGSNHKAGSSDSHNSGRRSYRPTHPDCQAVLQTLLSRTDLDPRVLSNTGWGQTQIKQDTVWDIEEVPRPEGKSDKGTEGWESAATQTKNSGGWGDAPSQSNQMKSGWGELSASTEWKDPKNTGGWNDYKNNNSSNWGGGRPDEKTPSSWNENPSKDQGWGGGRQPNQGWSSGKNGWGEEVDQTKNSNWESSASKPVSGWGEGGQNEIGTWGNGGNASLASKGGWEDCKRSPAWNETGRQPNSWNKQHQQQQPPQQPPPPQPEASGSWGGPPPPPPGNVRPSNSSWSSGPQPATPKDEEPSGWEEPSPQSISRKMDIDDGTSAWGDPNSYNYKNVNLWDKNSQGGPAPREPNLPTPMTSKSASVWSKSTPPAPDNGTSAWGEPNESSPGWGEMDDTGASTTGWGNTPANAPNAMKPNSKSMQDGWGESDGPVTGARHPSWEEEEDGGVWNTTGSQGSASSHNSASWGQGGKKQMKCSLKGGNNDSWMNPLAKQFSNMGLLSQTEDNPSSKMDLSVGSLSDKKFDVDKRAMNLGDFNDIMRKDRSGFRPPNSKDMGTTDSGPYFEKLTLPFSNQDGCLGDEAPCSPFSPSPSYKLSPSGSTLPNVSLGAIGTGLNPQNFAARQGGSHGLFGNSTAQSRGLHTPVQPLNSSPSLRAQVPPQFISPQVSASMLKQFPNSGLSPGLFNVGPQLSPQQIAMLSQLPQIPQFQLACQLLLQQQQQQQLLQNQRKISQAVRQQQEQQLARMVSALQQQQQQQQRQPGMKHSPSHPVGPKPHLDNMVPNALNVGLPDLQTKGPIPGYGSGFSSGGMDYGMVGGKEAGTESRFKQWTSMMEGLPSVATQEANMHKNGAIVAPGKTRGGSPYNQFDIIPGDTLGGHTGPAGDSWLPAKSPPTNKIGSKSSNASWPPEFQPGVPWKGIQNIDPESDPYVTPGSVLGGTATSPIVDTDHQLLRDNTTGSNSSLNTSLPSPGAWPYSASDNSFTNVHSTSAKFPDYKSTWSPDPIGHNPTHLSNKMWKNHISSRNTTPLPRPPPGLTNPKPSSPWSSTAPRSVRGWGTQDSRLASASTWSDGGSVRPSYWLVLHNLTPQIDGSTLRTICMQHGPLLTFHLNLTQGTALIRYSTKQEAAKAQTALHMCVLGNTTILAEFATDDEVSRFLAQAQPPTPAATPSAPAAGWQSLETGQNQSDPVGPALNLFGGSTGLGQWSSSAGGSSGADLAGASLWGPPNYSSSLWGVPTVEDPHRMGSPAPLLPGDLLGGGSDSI
UniProt Q9NUQ3: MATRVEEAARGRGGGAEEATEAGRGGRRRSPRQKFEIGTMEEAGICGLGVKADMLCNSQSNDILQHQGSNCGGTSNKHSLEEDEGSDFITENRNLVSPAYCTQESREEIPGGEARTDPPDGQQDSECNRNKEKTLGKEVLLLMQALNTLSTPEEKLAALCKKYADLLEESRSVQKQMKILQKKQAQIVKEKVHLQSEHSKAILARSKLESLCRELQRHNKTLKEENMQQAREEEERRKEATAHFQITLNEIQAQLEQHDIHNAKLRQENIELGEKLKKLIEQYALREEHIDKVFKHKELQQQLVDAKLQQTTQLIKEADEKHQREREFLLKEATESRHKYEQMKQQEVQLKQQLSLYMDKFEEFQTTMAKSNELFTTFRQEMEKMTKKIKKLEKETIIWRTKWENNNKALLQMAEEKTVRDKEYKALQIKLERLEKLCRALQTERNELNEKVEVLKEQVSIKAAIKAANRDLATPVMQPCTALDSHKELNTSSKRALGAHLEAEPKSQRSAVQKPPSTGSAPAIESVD
UniProt Q9Y2W1: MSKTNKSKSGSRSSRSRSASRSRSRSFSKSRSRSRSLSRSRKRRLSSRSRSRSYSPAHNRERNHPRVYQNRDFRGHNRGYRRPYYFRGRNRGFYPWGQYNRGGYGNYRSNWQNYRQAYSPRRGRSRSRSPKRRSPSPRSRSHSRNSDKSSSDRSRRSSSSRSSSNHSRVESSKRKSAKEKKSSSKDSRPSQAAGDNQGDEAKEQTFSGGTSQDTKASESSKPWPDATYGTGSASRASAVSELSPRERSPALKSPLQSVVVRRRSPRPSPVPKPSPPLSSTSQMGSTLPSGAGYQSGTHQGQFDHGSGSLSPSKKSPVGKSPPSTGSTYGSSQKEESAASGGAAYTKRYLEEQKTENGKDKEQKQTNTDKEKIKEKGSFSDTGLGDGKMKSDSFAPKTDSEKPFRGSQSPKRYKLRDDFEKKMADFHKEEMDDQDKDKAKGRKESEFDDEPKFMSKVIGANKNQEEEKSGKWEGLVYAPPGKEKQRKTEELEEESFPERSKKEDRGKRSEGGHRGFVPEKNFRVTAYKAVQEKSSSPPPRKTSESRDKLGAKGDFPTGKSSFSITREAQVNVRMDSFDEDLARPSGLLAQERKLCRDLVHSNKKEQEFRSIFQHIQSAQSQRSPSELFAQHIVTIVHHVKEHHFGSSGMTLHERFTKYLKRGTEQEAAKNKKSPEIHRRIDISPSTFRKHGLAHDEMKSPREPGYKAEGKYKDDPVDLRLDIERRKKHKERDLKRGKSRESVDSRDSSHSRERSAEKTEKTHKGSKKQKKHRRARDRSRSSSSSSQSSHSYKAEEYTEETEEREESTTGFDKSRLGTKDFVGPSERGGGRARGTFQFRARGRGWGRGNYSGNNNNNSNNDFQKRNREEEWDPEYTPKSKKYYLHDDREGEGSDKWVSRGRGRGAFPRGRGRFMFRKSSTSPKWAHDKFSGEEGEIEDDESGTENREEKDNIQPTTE
UniProt O94842: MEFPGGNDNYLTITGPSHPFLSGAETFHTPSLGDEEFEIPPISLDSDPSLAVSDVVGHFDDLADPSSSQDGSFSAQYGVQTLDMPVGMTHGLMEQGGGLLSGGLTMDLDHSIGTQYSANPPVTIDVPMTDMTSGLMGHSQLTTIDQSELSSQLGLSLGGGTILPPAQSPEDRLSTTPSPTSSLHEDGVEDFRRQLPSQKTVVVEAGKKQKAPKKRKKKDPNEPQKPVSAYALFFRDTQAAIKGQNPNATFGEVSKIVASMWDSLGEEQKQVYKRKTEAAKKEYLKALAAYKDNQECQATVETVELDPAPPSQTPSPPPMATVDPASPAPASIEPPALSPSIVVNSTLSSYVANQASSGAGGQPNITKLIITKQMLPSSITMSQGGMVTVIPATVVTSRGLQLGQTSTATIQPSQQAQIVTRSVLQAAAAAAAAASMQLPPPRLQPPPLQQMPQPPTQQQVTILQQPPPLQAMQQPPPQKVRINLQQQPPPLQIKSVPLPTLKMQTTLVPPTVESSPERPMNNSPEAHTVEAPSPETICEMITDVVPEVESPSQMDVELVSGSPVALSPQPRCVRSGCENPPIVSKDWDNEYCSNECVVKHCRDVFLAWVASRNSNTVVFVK
UniProt Q99426: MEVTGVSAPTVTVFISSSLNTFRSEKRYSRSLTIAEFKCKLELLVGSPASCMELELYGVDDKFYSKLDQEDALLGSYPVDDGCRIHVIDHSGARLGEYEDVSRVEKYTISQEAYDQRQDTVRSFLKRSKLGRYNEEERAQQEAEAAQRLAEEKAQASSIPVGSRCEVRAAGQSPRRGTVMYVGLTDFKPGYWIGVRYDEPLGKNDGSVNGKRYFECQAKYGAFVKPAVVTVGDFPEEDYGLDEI
UniProt P28908: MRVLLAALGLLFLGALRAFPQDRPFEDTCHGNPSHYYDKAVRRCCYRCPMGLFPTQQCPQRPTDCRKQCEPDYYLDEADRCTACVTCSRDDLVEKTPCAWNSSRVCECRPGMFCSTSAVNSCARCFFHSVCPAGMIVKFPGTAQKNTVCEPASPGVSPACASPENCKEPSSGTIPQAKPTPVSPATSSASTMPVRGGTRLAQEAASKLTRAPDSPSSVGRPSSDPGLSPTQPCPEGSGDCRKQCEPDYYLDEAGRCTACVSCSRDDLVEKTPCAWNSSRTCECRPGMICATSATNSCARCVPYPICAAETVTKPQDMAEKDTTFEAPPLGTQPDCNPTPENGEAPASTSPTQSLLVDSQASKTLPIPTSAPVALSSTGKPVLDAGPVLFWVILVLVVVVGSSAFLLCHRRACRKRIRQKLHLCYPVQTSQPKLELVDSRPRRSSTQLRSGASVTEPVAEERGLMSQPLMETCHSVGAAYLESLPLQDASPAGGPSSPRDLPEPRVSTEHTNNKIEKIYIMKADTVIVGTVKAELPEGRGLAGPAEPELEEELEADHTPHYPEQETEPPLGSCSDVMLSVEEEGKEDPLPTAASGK
UniProt Q8NCE0: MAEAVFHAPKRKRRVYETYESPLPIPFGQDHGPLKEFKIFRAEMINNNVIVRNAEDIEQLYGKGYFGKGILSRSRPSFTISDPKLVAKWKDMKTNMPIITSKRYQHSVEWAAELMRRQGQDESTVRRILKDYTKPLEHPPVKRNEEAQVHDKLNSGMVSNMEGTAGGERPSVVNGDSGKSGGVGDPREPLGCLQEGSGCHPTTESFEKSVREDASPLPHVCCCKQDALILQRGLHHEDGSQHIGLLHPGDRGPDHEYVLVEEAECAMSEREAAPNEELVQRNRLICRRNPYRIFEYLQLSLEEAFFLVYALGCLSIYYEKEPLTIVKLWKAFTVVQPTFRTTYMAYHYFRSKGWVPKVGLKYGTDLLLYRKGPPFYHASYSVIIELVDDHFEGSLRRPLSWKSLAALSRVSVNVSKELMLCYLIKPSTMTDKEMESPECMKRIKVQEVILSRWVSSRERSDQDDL
UniProt Q14258, whole entry: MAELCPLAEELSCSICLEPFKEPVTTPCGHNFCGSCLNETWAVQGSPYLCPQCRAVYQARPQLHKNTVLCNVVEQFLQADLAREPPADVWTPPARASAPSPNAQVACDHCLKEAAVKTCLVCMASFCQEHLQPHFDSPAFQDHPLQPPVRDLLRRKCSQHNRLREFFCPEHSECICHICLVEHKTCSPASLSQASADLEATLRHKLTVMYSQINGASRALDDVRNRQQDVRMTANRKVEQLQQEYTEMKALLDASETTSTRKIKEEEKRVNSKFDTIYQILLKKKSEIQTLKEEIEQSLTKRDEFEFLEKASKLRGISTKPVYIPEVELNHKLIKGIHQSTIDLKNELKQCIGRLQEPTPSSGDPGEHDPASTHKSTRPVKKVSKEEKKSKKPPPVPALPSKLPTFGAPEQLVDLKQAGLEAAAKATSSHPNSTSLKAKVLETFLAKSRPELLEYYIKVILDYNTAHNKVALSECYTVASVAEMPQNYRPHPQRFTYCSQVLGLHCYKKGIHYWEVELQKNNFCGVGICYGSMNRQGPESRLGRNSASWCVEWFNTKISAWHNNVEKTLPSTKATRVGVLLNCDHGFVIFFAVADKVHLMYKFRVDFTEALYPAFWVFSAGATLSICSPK
UniProt Q6PIZ9: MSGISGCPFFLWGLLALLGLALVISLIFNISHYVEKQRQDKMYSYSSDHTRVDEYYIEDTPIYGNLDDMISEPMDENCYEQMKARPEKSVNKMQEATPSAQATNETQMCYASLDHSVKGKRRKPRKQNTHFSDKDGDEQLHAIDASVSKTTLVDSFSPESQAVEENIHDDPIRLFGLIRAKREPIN

Compound in the experiment: Nc1nc2c(ncn2[C@@H]2O[C@H](COP(=O)(O)OP(=O)(O)OP(=O)(O)O)[C@@H](O)[C@H]2O)c(=O)[nH]1
As to the kind of experiment: dose-dependent thermal stabilisation call (2D-TPP, DLPTP, 10% FDR) (binary (1 = stabilised)); higher = stabilised by the compound. Particulars: system: Jurkat gel-filtered lysate; concentration range 1-500 µM. The method, then:
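2D thermal proteome profiling in gel-filtered Jurkat E6.1 lysate (2 mg/ml) treated with NaGTP (0, 1, 10, 100, 500 uM) for 10 min at room temperature, then heated 3 min at one of 12 temperatures (42-63.9 C). Soluble protein was quantified by TMT10 MS. The value is the DLPTP call of the paper: dose-dependent thermal stabilisation over all temperatures at 10% FDR (F-test of a dose-response against a flat model); one experiment, one call per tested protein.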
For the target TMA16 (UniProt Q96EY4), the “dose-dependent thermal stabilisation call” value was inactive: 0.
Turning to TRAPPC5 (UniProt Q8IUR0), the “dose-dependent thermal stabilisation call” value is inactive: 0.
In the case of TBC1D13 (UniProt Q9NVG8) it was inactive: 0.
The result for UBA7 (UniProt P41226) reads inactive: 0; that for TRIM32 (UniProt Q13049), inactive: 0.
For the target TBCEL (UniProt Q5QJ74), the “dose-dependent thermal stabilisation call” value is active: 1.
The result for TNRC6B (UniProt Q9UPQ9) reads inactive: 0.
As for THOC5 (UniProt Q13769), the “dose-dependent thermal stabilisation call” value is active: 1.
The result for TDP2 (UniProt O95551) reads inactive: 0.
In the case of TXLNG (UniProt Q9NUQ3) it was inactive: 0.
Take UBAP2L (UniProt Q14157): the “dose-dependent thermal stabilisation call” value was inactive: 0.
The result for TTC1 (UniProt Q99614) reads inactive: 0; that for THRAP3 (UniProt Q9Y2W1), active: 1; that for TBL1XR1 (UniProt Q9BZK7), inactive: 0.
In the case of TOX4 (UniProt O94842) it was inactive: 0; in that of TBCB (UniProt Q99426), inactive: 0.
For TAOK1 (UniProt Q7L7X3), the “dose-dependent thermal stabilisation call” value was inactive: 0.
Turning to TRAPPC11 (UniProt Q7Z392), the “dose-dependent thermal stabilisation call” value was inactive: 0.
In the case of TBC1D10A (UniProt Q9BXI6) it was inactive: 0; in that of TUBGCP3 (UniProt Q96CW5), active: 1; in that of TNFRSF8 (UniProt P28908), inactive: 0.
As for TDG (UniProt Q13569), the “dose-dependent thermal stabilisation call” value is active: 1.
In the case of TBC1D15 (UniProt Q8TC07) it was inactive: 0; in that of TAX1BP1 (UniProt Q86VP1), inactive: 0.
Take TRAPPC10 (UniProt P48553): the “dose-dependent thermal stabilisation call” value was inactive: 0.
As to TATDN2 (UniProt Q93075), the “dose-dependent thermal stabilisation call” value is inactive: 0.
For the target TTC27 (UniProt Q6P3X3), the “dose-dependent thermal stabilisation call” value was inactive: 0.
Consider THEMIS (UniProt Q8N1K5), for which the “dose-dependent thermal stabilisation call” value was inactive: 0.
The result for TANGO2 (UniProt Q6ICL3) reads inactive: 0.
As to TCEAL1 (UniProt Q15170), the “dose-dependent thermal stabilisation call” value is inactive: 0.
The result for TOLLIP (UniProt Q9H0E2) reads inactive: 0; that for TSEN2 (UniProt Q8NCE0), active: 1.
In the case of TARDBP (UniProt Q13148) it was active: 1; in that of TRIM25 (UniProt Q14258), inactive: 0; in that of TLE1 (UniProt Q04724), inactive: 0.
In the case of TRAT1 (UniProt Q6PIZ9) it was inactive: 0; in that of THNSL1 (UniProt Q8IYQ7), inactive: 0.
Take TLDC1 (UniProt Q6P9B6): the “dose-dependent thermal stabilisation call” value was inactive: 0.
On to TRAF7 (UniProt Q6Q0C0), for which the “dose-dependent thermal stabilisation call” value was inactive: 0.
The result for TMF1 (UniProt P82094) reads inactive: 0.

The record behind these values is the supplement of paper PMC7666118.
